Test results published in PubChem BioAssay AID1671190 (National Center for Advancing Translational Sciences (NCATS), 2021).
Out of some 580,000 compounds screened, about 6,100 (1.1%) were called active. The inconclusive results got no clear call from the source; some entries with a clear call stand among them for comparison. Calls follow the shape of the dose curve; as a rule, active = well fitted inhibition curve with a large enough effect; inconclusive = small, poorly fitted or top-dose-only effect, or another doubt; inactive = no such curve, though single readings can be large or run the other way. A potency beside an inconclusive call is a rough fit, not a confirmed value.

Amino acid sequences for entries named in this document (tags omitted). A change or cut given only in a name is not applied to a line headed by its entry.
UniProt P18054: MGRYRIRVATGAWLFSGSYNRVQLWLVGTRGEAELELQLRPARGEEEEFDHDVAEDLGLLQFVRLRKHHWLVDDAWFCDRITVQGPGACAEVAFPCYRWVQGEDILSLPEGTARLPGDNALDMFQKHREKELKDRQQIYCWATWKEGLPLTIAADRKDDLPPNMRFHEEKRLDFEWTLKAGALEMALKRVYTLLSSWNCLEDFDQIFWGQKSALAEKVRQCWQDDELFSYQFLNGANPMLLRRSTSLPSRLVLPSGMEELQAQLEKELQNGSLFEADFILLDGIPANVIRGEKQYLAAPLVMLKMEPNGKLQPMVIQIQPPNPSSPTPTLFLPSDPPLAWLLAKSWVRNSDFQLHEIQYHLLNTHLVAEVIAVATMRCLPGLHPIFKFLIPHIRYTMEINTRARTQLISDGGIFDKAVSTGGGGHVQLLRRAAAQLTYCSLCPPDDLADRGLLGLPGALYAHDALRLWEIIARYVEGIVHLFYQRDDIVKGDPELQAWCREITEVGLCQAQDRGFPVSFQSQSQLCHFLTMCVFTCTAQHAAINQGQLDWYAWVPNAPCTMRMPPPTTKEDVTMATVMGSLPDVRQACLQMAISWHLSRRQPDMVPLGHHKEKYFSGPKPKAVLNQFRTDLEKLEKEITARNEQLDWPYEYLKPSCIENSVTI

biological target: Polyunsaturated fatty acid lipoxygenase ALOX12 (Homo sapiens) (UniProt P18054); experiment: Primary qHTS assay for inhibitors of human arachidonate 12S-lipoxygenase (ALOX12): Round 2; details: purified 12hLO, xylenol orange hydroperoxide absorbance; activity change, negative = inhibition: at 108 µM (top of the series) unless noted
Procedure, shortened: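 Purified human 12hLO at 150 nM in 25 mM Hepes, 0.01% Triton X-100, pH 7.0, preincubated 15 min at room temperature with compound. Reaction started with 40 uM arachidonic acid, 30 min at room temperature. Hydroperoxide measured by Fe-xylenol orange, 573/405 nm absorbance ratio.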
% is scaled to controls: 0 for no effect and ±100 for the full control effect; potency is read from the fitted curve at half-maximal effect.

| SMILES | Potency | activity change, negative = inhibition |
| --- | --- | --- |
| COC(=O)[C@@H]1C[C@@]2(O)[C@H](O)[C@H](O)[C@H](O)C[C@H]2N1Cc1ccc(C(F)(F)F)cc1 | inconclusive: 39.8 µM [inhibitor, partial curve, poor fit] | – |
| COCCCNC(=O)c1cc(-c2ccccc2)nc2ccc(C)cc12 | inactive | – |
| CCOc1ccccc1NC(=O)c1cc2ccccc2oc1=O | inconclusive: 39.8 µM [inhibitor, partial curve, poor fit] | – |
| N#Cc1c(-c2ccccc2)nc(SCc2cccc(Cl)c2)[nH]c1=O | active: 39.8 µM | – |
| O=C(O)c1c2c(nc3ccccc13)/C(=C/c1ccc(O)cc1)CC2 | inconclusive: 35.5 µM [inhibitor, partial curve, poor fit] | – |
| COc1ccc(-c2cc(C(=O)NCCC(=O)N3CCCC3)c3ccccc3n2)cc1OC | inactive | – |
| CCc1nnc(NC(=O)CCC(=O)NCc2ccccc2Cl)s1 | inconclusive: 4.47 µM [inhibitor, full curve, poor fit] | – |
| CCN1C(=O)[C@H]2[C@@H](c3ccc(OC)cc3)N[C@]3(CCCN(Cc4ccc(Br)cc4)C3=O)[C@H]2C1=O | inconclusive: 112 µM [inhibitor, single point] | – |
| COc1cc(CO)cc(Br)c1OCC(=O)O | inconclusive: 70.8 µM [inhibitor, partial curve, poor fit] | – |
| O=S(=O)(c1ccccc1Cl)N1CCn2cccc2C1c1ccccc1F (stereo not drawn) | inactive | – |
| S=C(NCc1ccccc1)N/N=C/c1ccccc1Br | inconclusive: 39.8 µM [inhibitor, partial curve, poor fit] | – |
| COc1cc2c(=O)n(CC3CCCO3)c(=O)n(CC(=O)Nc3cccc(Cl)c3)c2cc1OC (stereo not drawn) | inactive | – |
| CCN(CC)c1ccc(NS(=O)(=O)c2cc3[nH]c(=O)c(=O)[nH]c3cc2C)c(C)c1 | active: 44.7 µM | – |
| CC(Oc1ccc(F)cc1)C(=O)Nc1cccc(-c2nn[nH]n2)c1 (stereo not drawn) | inconclusive: 50.1 µM [inhibitor, partial curve, poor fit] | – |
| Cc1nccn1CC(=O)N1C[C@@H](COCC2CC2)[C@H](c2ccncc2)C1 | inactive | – |
| O=C(c1ccc(COc2ccc(Cl)cc2)o1)N1CCN(Cc2ccc3c(c2)OCO3)CC1 | inconclusive: 35.5 µM [inhibitor, partial curve, poor fit] | – |
| CCOc1ccc(-n2nc3ccc(NC(=O)COc4ccc(OC)cc4)cc3n2)cc1 | – | inconclusive: -33.3% [inhibitor] |
| Cc1ccc(CNC(=O)Cn2ccn3nc4c(c3c2=O)CCCCC4)cc1 | inconclusive: 5.01 µM [inhibitor, partial curve, poor fit] | – |

Whole records, looked up by structure:
`COc1cc(CO)cc(Br)c1OCC(=O)O` is listed as Potency: inconclusive: 70.8 µM [inhibitor, partial curve, poor fit]
`COc1ccc(-c2cc(C(=O)NCCC(=O)N3CCCC3)c3ccccc3n2)cc1OC` is listed as Potency: inactive
